Test system: Caenorhabditis elegans (C. elegans, N2 strain)
Details: L4-stage worms, 24 h at 20 °C, K-M buffer, Probit analysis

SMILES: CN1[C@@H]2CC[C@H]1C[C@@H](OC(=O)C(CO)c1ccccc1)C2 (stereo partly shown) [Atropine]
- LD50: 21.5 to 46.4 mg/mL
